Assay results as given in publication PMC7819943, “Rice protein-binding microarrays: a tool to detect cis-acting elements near promoter regions in rice”.
This is one part of the list.

By UniProt entry, the sequences of proteins in these tests, tags left out.
UniProt Q0JBA9, entry or part of it: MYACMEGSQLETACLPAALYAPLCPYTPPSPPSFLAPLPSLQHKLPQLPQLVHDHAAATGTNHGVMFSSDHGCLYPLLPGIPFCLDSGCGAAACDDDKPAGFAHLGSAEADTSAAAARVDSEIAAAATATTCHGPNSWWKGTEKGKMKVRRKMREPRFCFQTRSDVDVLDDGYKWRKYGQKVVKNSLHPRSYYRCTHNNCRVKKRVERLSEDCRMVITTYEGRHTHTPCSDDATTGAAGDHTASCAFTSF

Molecular target: OsWRKY34 (Oryza sativa, UniProt Q0JBA9 1-250)
Assay: protein-binding microarray (RPBM); PBS, 2% BSA, 51.3 ng/ul salmon testes DNA, 50 uM zinc acetate, 200 nM TF, 25 C, 1 h; high values mean tight binding
Settings: protein: recombinant; tags: N-terminal polyhistidine and DsRed monomer fusion (pET32a); label: CyDye5-dUTP incorporated in the synthesized complementary strand; 3' TTTTT single-stranded linker to array surface; dsDNA, one strand shown
Summary of the method: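 Polyhistidine-tagged DsRed fusions of transcription factors, joined at the N-terminus, were expressed in E. coli BL21-CodonPlus and isolated on Ni–NTA. They were incubated at 200 nM for 1 h at 25 °C on a custom Agilent array, double-stranded and BSA-blocked, in PBS with 2% BSA, salmon testes DNA and 50 µM zinc acetate. The binding signal is per-feature fluorescence intensity (arbitrary units) read on an Axon 4000B scanner after washing.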

Sequence	binding signal
GGAGTTTTAATAATGATTTTAGGGTGGGTGGAAAGATTACCGGAGTCACCTAGTGCAG	9760 fluorescence intensity (a.u.)
GCATGCTCTTCTGATCTGTAATCTCAGGCTCTATTACTCTCGGAGTCACCTAGTGCAG	8790 fluorescence intensity (a.u.)
CATAAGTTCGTACCACTGACTATATATACCAATGCATCCTCGGAGTCACCTAGTGCAG	9590 fluorescence intensity (a.u.)
AAAAATCAGGTGAAATTTCTGCTCTCTCATCACTTGTCCACGGAGTCACCTAGTGCAG	8700 fluorescence intensity (a.u.)
CTGGTTACTTTCTCATTTCTTCCTCGCTCGCGCGCTCTCTCGGAGTCACCTAGTGCAG	10800 fluorescence intensity (a.u.)
ATATGCAGGATTGCATGTGGTTGTTACTTTACATTCATTTCGGAGTCACCTAGTGCAG	9030 fluorescence intensity (a.u.)
TCTCTGTCTCACTCTTCCTCTCTCTCACACGCACGGCGAGCGGAGTCACCTAGTGCAG	8380 fluorescence intensity (a.u.)
AGCTCAGTGCCCTTTTCTTCCTCATTTTTTCTTAGTCCGGCGGAGTCACCTAGTGCAG	8860 fluorescence intensity (a.u.)
ACACTTTGACTCTTTGATTTAGTAAGCTCGAGTTTATTTTCGGAGTCACCTAGTGCAG	9030 fluorescence intensity (a.u.)
TTTATGATCACATATGTGATACGTTCTTATCTTTATGTTGCGGAGTCACCTAGTGCAG	8230 fluorescence intensity (a.u.)
GATCCGTTGATTCATTTCCTTCCAAATTTCCCACACAATGCGGAGTCACCTAGTGCAG	11900 fluorescence intensity (a.u.)
CAATTGACAGGTCTTTGTTTGTTTTGTTTTTTTTTTTGCCCGGAGTCACCTAGTGCAG	9690 fluorescence intensity (a.u.)
CTGAGCTTCACGCCGTCCTCGCTCGCCGCGCTAAAAATTTCGGAGTCACCTAGTGCAG	8890 fluorescence intensity (a.u.)
TAAATATGGACCCACGTGTTATCATGCACACGCCCACATCCGGAGTCACCTAGTGCAG	10500 fluorescence intensity (a.u.)
CCGCCGCGCCGCTCGCCGCCTCCGCCACCGCCTCCGCCGGCGGAGTCACCTAGTGCAG	12100 fluorescence intensity (a.u.)
ACCCGAGATCTTTTATTGGTTTTGACTTCGGTTTTGGTATCGGAGTCACCTAGTGCAG	9660 fluorescence intensity (a.u.)
GCCATCCGCATGCATGCACGTGAACTACTCGATCCACCGCCGGAGTCACCTAGTGCAG	10400 fluorescence intensity (a.u.)
TACTCAAACTTAATATTAACTACTCTCTCCATTTCATATTCGGAGTCACCTAGTGCAG	10500 fluorescence intensity (a.u.)
GTACTATCGTCACTTGACATGCGCATGGCTTCAACTGAGTCGGAGTCACCTAGTGCAG	8300 fluorescence intensity (a.u.)
AAACACCATACTTCTTGTATTTGGACGGGCGGTAATTCACCGGAGTCACCTAGTGCAG	8430 fluorescence intensity (a.u.)
TGATCGCCGTGGTATCCTGTTGCGGTTTGTTTCGTGGTGTCGGAGTCACCTAGTGCAG	8930 fluorescence intensity (a.u.)
AAATTATTTTCTCCCGATATTTGTTCATATTCAGGACTGACGGAGTCACCTAGTGCAG	8160 fluorescence intensity (a.u.)
GTGTTGTGTTCATCTCCTTCGTTTACTTCTCTTCTCCTCTCGGAGTCACCTAGTGCAG	11500 fluorescence intensity (a.u.)
CAAACCCCAACCCTCGTTGACCCTTCGCAACCAAATCCCTCGGAGTCACCTAGTGCAG	10800 fluorescence intensity (a.u.)
TCAGGCCATATGCATTTCTGTACAGCTTACCTCGGATGATCGGAGTCACCTAGTGCAG	10700 fluorescence intensity (a.u.)
TCTGGTCTCTTCTCCTCTCTTCGTCTTCGTCTTTGCCCATCGGAGTCACCTAGTGCAG	9840 fluorescence intensity (a.u.)
CCGTACTTATCTACTTATCATCTACGTGTACCGTGTTTATCGGAGTCACCTAGTGCAG	8300 fluorescence intensity (a.u.)

Sequence	binding signal
GACGAGTAGTATTGTGTGGTGTGCATGTGTAGGGAGGGCACGGAGTCACCTAGTGCAG	9500 fluorescence intensity (a.u.)
TCTATATTGCTATTTTCATTTTAAAACTATTTCTTGCCACCGGAGTCACCTAGTGCAG	10300 fluorescence intensity (a.u.)
GATGACACTTTGACCACCCTCAACACTTTTATCTATCTATCGGAGTCACCTAGTGCAG	9680 fluorescence intensity (a.u.)
GTAGCCGTGGACTCGCCGTACCTTTTTTGCTTTGCTTCCCCGGAGTCACCTAGTGCAG	10100 fluorescence intensity (a.u.)
TGAACCCATTTTTCCGTGCGGAACAAGTTACCGTCCGCACCGGAGTCACCTAGTGCAG	8330 fluorescence intensity (a.u.)
GGCACCATTTCCTTCTCGTCCTCTTCCGAGTTTCCGACCCCGGAGTCACCTAGTGCAG	8430 fluorescence intensity (a.u.)
CAAGGCCATATTGATATATCCATTATATACACACCTCAATCGGAGTCACCTAGTGCAG	8120 fluorescence intensity (a.u.)
CGGTGCGCTCTTTGTGTGTGATCTCTTTGGTCGCCGGCGGCGGAGTCACCTAGTGCAG	8840 fluorescence intensity (a.u.)
ATCAAGAGAGATATGGGGAGGGTCGGTAGGGATCAGACTTCGGAGTCACCTAGTGCAG	9080 fluorescence intensity (a.u.)
ATGTACTGGTGATCTTTAGTTTACCTCTGGAAGTTAGTGTCGGAGTCACCTAGTGCAG	8330 fluorescence intensity (a.u.)
TCGGGCGGTTTAAGTAGGTTTTCATTTTCTTCGCAGCTTCCGGAGTCACCTAGTGCAG	10200 fluorescence intensity (a.u.)
TATTCCTAGCTGGTTGAGGTCGCGAAGGTTGACGCTGTTCCGGAGTCACCTAGTGCAG	10600 fluorescence intensity (a.u.)
TCTTACTATCGATTTTAATTGTGATTTTATTCCTACTTTTCGGAGTCACCTAGTGCAG	10100 fluorescence intensity (a.u.)
CAGTGGCGGGATTGGAAGAGGGCACTCAGGTGTTGGGTCTCGGAGTCACCTAGTGCAG	8610 fluorescence intensity (a.u.)
TCACCATCCACCATCTCGCTTTCTGGGCTGGCTCGTCAGGCGGAGTCACCTAGTGCAG	10500 fluorescence intensity (a.u.)
GAAAAAAATGTAAAAACTGTTGACTTTTAGTCAACGCCATCGGAGTCACCTAGTGCAG	16400 fluorescence intensity (a.u.)
CATTTTCTTTCACGACTGTTTTCTTCAACTTCATAATCTCCGGAGTCACCTAGTGCAG	10200 fluorescence intensity (a.u.)
TTTGCCATCTCTTTCTTTCTGGGCTGCTTTCACCTTTTGCCGGAGTCACCTAGTGCAG	8930 fluorescence intensity (a.u.)
TTAATGTATGACACTGTTGACTTTTTTTCCAACGTTTGACCGGAGTCACCTAGTGCAG	21900 fluorescence intensity (a.u.)
ATTGGGTTCCTATATAGACTCCTCTTTCCATATTGCTTTTCGGAGTCACCTAGTGCAG	10100 fluorescence intensity (a.u.)
ACTCCCGGTCCCATGTCACCGACACATGTACATCTCAGCACGGAGTCACCTAGTGCAG	8650 fluorescence intensity (a.u.)
TCCGCTTCTCTTCTCTTCTCTTCTGGTCTCGCTGTTAGATCGGAGTCACCTAGTGCAG	8430 fluorescence intensity (a.u.)
CCGTGGGCCAGACCTTTTTCTTCGACGCTAGACCTGACTACGGAGTCACCTAGTGCAG	9780 fluorescence intensity (a.u.)
AGTTTCAAGGTGTTCTTTAGCTTTCTATGTTCTGTTGGGGCGGAGTCACCTAGTGCAG	10600 fluorescence intensity (a.u.)
CTTTCAGTTACGGGCCCCACCTGTCATTCTCTCACCTCTCCGGAGTCACCTAGTGCAG	8750 fluorescence intensity (a.u.)
ATCTCACCCATCTTAACCTCTCCACCTGCAACTTCGCTGGCGGAGTCACCTAGTGCAG	8080 fluorescence intensity (a.u.)
AGTGGTCTATATGTCATTGCACCTGTATGCCAAGCCAGAACGGAGTCACCTAGTGCAG	8410 fluorescence intensity (a.u.)

Some values from the list.
For binding signal, TGAACCCATTTTTCCGTGCGGAACAAGTTACCGTCCGCACCGGAGTCACCTAGTGCAG is entered as 8330 fluorescence intensity (a.u.)
For binding signal, ACTCCCGGTCCCATGTCACCGACACATGTACATCTCAGCACGGAGTCACCTAGTGCAG is entered as 8650 fluorescence intensity (a.u.)
